Assay results reported in publication PMC5389796.
Results are given in words; binding and its absence hold for the method and conditions named. In cells and extracts the contact can be indirect. Some entries that bind do so weakly or less than the wild type. For some assays here: Sequences can lack the tags named with a protein.

Chains of the proteins cited; added tags and fusions are not shown. Residues count along the entry.
UniProt P10451, residues 17-314: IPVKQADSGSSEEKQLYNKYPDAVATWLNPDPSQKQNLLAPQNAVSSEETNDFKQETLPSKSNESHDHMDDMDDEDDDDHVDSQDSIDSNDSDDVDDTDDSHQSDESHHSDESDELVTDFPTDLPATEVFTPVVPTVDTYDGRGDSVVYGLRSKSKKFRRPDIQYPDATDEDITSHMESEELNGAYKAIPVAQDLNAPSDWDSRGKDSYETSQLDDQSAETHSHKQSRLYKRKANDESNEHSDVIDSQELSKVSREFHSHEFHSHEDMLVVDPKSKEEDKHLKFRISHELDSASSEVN

T1: primary islet TALK-1 channels (human (endogenous in human islets)) (UniProt Q96T55)
T1 sequence: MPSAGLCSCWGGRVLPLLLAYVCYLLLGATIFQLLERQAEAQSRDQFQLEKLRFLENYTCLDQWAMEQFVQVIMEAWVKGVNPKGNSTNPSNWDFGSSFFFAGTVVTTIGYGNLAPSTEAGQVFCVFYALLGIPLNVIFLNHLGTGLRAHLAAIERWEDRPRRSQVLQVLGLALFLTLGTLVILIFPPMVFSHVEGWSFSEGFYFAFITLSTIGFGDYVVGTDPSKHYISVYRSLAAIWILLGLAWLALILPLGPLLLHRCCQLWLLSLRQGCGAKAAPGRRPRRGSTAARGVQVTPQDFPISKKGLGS

T2: TALK-1 T3-FLAG (human) (UniProt Q96T55)
T2 sequence: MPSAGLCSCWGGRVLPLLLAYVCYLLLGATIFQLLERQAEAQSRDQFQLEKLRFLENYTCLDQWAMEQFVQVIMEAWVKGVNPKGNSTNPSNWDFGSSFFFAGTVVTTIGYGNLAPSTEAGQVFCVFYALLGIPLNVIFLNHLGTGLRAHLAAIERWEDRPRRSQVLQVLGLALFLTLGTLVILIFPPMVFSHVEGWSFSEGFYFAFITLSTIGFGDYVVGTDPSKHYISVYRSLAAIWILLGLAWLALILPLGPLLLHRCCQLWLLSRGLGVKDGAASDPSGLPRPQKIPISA


Assays:
[1] = target: T1, primary islet TALK-1 channels (human (endogenous in human islets)); experiment: co-IP; primary human islets (5000 IEQs), RIPA lysate; rabbit anti-TALK-1 immunoprecipitation; blot with mouse anti-iOPN
TALK-1 T3-FLAG (human) = target: T2, TALK-1 T3-FLAG (human); experiment: co-IP; HEK293 cells co-transfected 48 hrs; RIPA lysate; anti-FLAG M2 with protein A/G magnetic beads overnight at 4°C; eluted with FLAG peptide; blot with anti-V5

binding [1]	binding (TALK-1 T3-FLAG (human))	Molecule
binds	–	iOPN of human islets (from UniProt P10451 17-314)
–	binds	CLDN10b-V5 (protein, UniProt P78369-1 1-228) MASTASEIIAFMVSISGWVLVSSTLPTDYWKVSTIDGTVITTATYWANLWKACVTDSTGVSNCKDFPSMLALDGYIQACRGLMIAAVSLGFFGSIFALFGMKCTKVGGSDKAKAKIACLAGIVFILSGLCSMTGCSLYANKITTEFFDPLFVEQKYELGAALFIGWAGASLCIIGGVIFCFSISDNNKTPRYTYNGATSVMSSRTKYHGGEDFKTTNPSKQFDKNAYV
